The text below walks through data of ChEMBL document CHEMBL4118274, “Synthesis and biological evaluation of pyridine-linked indanone derivatives: Potential agents for inflammatory bowel disease” (Bioorg Med Chem Lett, 2018).

Amino acid sequences for entries named in this document (tags omitted).
UniProt P01375, whole entry: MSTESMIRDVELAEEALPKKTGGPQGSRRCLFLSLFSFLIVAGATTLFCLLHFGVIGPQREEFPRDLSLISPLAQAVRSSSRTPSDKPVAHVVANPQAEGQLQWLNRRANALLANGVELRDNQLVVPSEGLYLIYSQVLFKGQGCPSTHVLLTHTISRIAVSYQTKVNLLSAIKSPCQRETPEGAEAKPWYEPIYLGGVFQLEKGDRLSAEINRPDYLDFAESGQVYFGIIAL

In test [1] the target is Tumor necrosis factor (Homo sapiens) (UniProt P01375). The experiment in a line: Inhibition of TNFalpha (unknown origin)-induced NFkappaB transcriptional activity in human HT-29 cells at 10 uM pretreated with cells for 1 hr followed by TNFalpha induction for 3 hrs by dual luciferase reporter gene assay. The class given is cell-based. Background: Reporter assays use an easily measured gene product as a stand-in for the process of interest.

The target is the same in test [2]. The experiment in a line: Inhibition of TNFalpha (unknown origin)-induced MCP-1 expression in human HT-29 cells at 10 uM preincubated with cells for 1 hr followed by TNFalpha induction of 3 hrs by Western blot analysis. The class given is cell-based.
For test [3] the target is unchanged. The experiment in a line: Inhibition of TNFalpha (unknown origin)-induced adhesion of BCECF fluorescence-labeled human U937 cells to human HT-29 cells at 10 uM measured at 3 hrs post TNFalpha stimulation relative to control.
Test [4] shares this target. In words: Inhibition of TNFalpha (unknown origin)-induced ICAM-1 expression in human HT-29 cells at 10 uM preincubated with cells for 1 hr followed by TNFalpha induction of 3 hrs by Western blot analysis. The class given is cell-based.

Activity calls are given as the source filed them. No cut-off for these calls is given here.

Turning to `O=C1/C(=C/c2ccncc2)Cc2ccccc21`, the inhibition entry in test [1], in test [2] and in test [4] was “Active” each time. Moreover, the inhibition (commonly the share of the control response that was lost under treatment) in test [3] worked out at 74.1%.
